Laboratory results: PubChem BioAssay AID602196 (INSERM, 2012)
In all, the deposit lists about 23,000 reagents; shown is an unselected part. Over the whole deposit, 455 (2%) are marked active. 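Active includes both protection and sensitisation; some change values fall well beyond the stated -50 to +50 range.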 Further read-outs or replicates are left out here. Not given: the amount of reagent.

Test: 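Knock-downs that protect lung cancer cells from cisplatin or sensitise them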
Cells: human A549 lung cancer cells
Knock-down reagent: siRNA pair against human genes
Duration: 48 h transfection before cisplatin; time from cisplatin to read-out not stated
Challenge: cisplatin at a dose killing half of control-siRNA cells; exact dose and duration not given
Detection: 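Shift in cisplatin death relative to control siRNA, from -50 (all cells die) to +50 (no cells die); siRNAs harmful on their own scored 0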
Scale: two-siRNA summed score (-2 to +2): higher = both siRNAs protect from cisplatin killing; -2 means both sensitise; mean protection from cisplatin (shift in death): higher = protection from cisplatin killing
Call rule: 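siRNAs harmful alone (LDH or WST-1) get 0; others get +1 for less and -1 for more cisplatin killing; genes are active when the two siRNAs give the same sign, summing to ±2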
Meaning of the calls: active = both siRNAs shift cisplatin killing the same way; inactive = no consistent shift, or siRNA harmful alone

Knock-down of LOC400623 [SID131510954] came out at: two-siRNA summed score (-2 to +2) = 0; mean protection from cisplatin (shift in death) (%) = 3.8; inactive. Against FES [SID131520440], the entry reads two-siRNA summed score (-2 to +2) = 1; mean protection from cisplatin (shift in death) (%) = 9.9; inactive. For KIR3DL3 [SID131520633] the deposit lists two-siRNA summed score (-2 to +2) = 1; mean protection from cisplatin (shift in death) (%) = 10.6; inactive. For OR52E4 [SID131514369], the entry reads two-siRNA summed score (-2 to +2) = 0; mean protection from cisplatin (shift in death) (%) = 7.7; inactive. Knock-down of NPY5R [SID131506598] came out at: two-siRNA summed score (-2 to +2) = 0; mean protection from cisplatin (shift in death) (%) = -1.3; inactive. For AKR1C8 [SID131521834], the values are two-siRNA summed score (-2 to +2) = 1; mean protection from cisplatin (shift in death) (%) = 15.1; inactive.

Knock-down of MAT1A [SID131505831] gave: two-siRNA summed score (-2 to +2) = 0; mean protection from cisplatin (shift in death) (%) = -2.5; inactive. With knock-down of ADAM12 [SID131503986], the record shows two-siRNA summed score (-2 to +2) = 0; mean protection from cisplatin (shift in death) (%) = -6.9; inactive. After knock-down of LOC440774 [SID131520390] the results were two-siRNA summed score (-2 to +2) = 1; mean protection from cisplatin (shift in death) (%) = 9.8; inactive. Depletion of TTLL6 [SID131500757] gave: two-siRNA summed score (-2 to +2) = -1; mean protection from cisplatin (shift in death) (%) = -16.5; inactive. PTPRB [SID131521211] showed two-siRNA summed score (-2 to +2) = 1; mean protection from cisplatin (shift in death) (%) = 12.6; inactive. With knock-down of KLF15 [SID131506039] the results were two-siRNA summed score (-2 to +2) = 0; mean protection from cisplatin (shift in death) (%) = -2.1; inactive.

After knock-down of SYNE4 [SID131500986], the record shows two-siRNA summed score (-2 to +2) = -1; mean protection from cisplatin (shift in death) (%) = -13.6; inactive. HNRNPL [SID131522390] showed two-siRNA summed score (-2 to +2) = 1; mean protection from cisplatin (shift in death) (%) = 18.1; inactive. TNFSF4 [SID131510568] gave two-siRNA summed score (-2 to +2) = 0; mean protection from cisplatin (shift in death) (%) = 3.4; inactive. SERF2 [SID131518574] scored two-siRNA summed score (-2 to +2) = 0; mean protection from cisplatin (shift in death) (%) = 21.9; inactive. Silencing of NDUFS4 [SID131502867] came out at: two-siRNA summed score (-2 to +2) = 0; mean protection from cisplatin (shift in death) (%) = -21.7; inactive. Silencing of CNKSR1 [SID131520020] gave: two-siRNA summed score (-2 to +2) = 1; mean protection from cisplatin (shift in death) (%) = 8.4; inactive.

For CNKSR1 [SID131520187] the deposit lists two-siRNA summed score (-2 to +2) = 1; mean protection from cisplatin (shift in death) (%) = 9; inactive. NGDN [SID131516545] scored two-siRNA summed score (-2 to +2) = 0; mean protection from cisplatin (shift in death) (%) = 11.1; inactive. Knock-down of LOC387905 [SID131503157] resulted in: two-siRNA summed score (-2 to +2) = 0; mean protection from cisplatin (shift in death) (%) = -12.7; inactive.

Entries above whose target name begins with L or l (3):
LOC400623 [SID131510954]: two-siRNA summed score (-2 to +2) = 0; mean protection from cisplatin (shift in death) (%) = 3.8; Outcome = inactive
LOC440774 [SID131520390]: two-siRNA summed score (-2 to +2) = 1; mean protection from cisplatin (shift in death) (%) = 9.8; Outcome = inactive
LOC387905 [SID131503157]: two-siRNA summed score (-2 to +2) = 0; mean protection from cisplatin (shift in death) (%) = -12.7; Outcome = inactive

Further records follow:
With knock-down of WASHC3 [SID131515285], the screen gave two-siRNA summed score (-2 to +2) = 0; mean protection from cisplatin (shift in death) (%) = 8.9; inactive. LOC391509 [SID131510223] gave two-siRNA summed score (-2 to +2) = 0; mean protection from cisplatin (shift in death) (%) = 3; inactive. After knock-down of MESP1 [SID131517098], the screen gave two-siRNA summed score (-2 to +2) = 0; mean protection from cisplatin (shift in death) (%) = 12.4; inactive. Against LOC390468 [SID131507614], the values are two-siRNA summed score (-2 to +2) = 0; mean protection from cisplatin (shift in death) (%) = 0.1; inactive. After knock-down of METTL25 [SID131511339] the results were two-siRNA summed score (-2 to +2) = 0; mean protection from cisplatin (shift in death) (%) = 4.2; inactive. Against SPINK14 [SID131522275], the entry reads two-siRNA summed score (-2 to +2) = 1; mean protection from cisplatin (shift in death) (%) = 17.3; inactive.

Against TCL1A [SID131513472], the entry reads two-siRNA summed score (-2 to +2) = 0; mean protection from cisplatin (shift in death) (%) = 6.6; inactive. Against ABCC4 [SID131501241], the values are two-siRNA summed score (-2 to +2) = -1; mean protection from cisplatin (shift in death) (%) = -11.2; inactive. Against SLIT3 [SID131511767], the values are two-siRNA summed score (-2 to +2) = 0; mean protection from cisplatin (shift in death) (%) = 4.7; inactive. After knock-down of ECE2 [SID131502890], the record shows two-siRNA summed score (-2 to +2) = 0; mean protection from cisplatin (shift in death) (%) = -19.8; inactive. For ECE2 [SID131508886], the entry reads two-siRNA summed score (-2 to +2) = 0; mean protection from cisplatin (shift in death) (%) = 1.6; inactive.
